## Primary screen of a compound library

By UniProt entry, the sequences of proteins in these tests, tags left out. Residues count along the entry.
UniProt A4I591, 1-473: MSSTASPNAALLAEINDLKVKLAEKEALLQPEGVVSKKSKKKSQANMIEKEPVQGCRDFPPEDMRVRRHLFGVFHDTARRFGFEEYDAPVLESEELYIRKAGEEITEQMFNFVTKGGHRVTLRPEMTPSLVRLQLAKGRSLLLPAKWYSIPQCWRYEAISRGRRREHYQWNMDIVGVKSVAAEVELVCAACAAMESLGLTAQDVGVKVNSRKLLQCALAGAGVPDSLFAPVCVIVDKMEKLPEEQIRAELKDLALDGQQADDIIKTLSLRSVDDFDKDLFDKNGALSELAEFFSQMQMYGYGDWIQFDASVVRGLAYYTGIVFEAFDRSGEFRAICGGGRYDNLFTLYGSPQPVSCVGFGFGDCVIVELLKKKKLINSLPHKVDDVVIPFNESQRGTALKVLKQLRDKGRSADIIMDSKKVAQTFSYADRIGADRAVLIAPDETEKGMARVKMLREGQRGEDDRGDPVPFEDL
UniProt I6X8D2, whole entry: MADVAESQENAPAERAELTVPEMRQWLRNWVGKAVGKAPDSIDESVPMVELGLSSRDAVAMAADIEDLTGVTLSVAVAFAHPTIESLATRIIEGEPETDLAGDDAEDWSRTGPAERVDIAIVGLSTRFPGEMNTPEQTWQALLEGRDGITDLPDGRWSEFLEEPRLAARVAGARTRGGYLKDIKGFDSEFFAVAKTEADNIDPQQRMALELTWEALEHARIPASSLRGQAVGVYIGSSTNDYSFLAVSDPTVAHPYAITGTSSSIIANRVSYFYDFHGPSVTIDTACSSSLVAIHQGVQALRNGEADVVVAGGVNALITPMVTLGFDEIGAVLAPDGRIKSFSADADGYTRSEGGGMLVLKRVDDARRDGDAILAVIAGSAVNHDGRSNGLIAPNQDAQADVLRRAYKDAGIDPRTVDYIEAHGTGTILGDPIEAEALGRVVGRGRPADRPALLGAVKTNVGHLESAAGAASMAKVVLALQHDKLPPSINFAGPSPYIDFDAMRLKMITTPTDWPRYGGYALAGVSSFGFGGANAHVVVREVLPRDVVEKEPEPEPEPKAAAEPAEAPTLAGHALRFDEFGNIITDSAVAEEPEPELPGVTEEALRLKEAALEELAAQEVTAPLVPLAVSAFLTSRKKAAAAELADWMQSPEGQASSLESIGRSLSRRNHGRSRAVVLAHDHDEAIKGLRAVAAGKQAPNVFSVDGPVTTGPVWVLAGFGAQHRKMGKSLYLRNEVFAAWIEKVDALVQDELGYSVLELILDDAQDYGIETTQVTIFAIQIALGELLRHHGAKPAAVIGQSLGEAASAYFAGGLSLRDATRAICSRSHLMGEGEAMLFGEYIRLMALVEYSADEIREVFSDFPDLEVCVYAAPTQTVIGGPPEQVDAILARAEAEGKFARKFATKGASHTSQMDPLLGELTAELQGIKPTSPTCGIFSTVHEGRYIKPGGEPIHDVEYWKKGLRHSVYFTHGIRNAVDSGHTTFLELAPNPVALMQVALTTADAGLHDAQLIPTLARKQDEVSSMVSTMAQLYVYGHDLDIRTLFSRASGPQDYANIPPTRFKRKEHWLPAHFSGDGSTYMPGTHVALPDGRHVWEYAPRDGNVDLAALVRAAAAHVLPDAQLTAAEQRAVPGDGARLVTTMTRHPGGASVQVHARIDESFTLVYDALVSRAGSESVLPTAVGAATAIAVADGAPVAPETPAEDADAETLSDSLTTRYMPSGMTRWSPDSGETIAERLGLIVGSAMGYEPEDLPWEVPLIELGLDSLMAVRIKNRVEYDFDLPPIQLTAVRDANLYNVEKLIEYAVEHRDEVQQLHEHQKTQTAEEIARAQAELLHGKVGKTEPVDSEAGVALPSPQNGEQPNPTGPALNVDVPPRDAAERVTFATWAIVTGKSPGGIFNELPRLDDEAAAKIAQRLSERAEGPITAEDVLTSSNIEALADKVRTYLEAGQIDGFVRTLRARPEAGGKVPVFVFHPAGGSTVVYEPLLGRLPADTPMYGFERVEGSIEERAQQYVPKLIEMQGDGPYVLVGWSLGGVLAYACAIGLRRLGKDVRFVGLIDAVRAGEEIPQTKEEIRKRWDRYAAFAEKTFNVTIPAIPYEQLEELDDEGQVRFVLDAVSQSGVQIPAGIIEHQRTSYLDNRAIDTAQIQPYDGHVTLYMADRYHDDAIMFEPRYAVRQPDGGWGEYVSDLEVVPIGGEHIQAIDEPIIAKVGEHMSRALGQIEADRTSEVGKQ

Results are given as percent effect. How 0% and 100% were set is not recorded. Most values in the screen are low, and negative values occur. This is an unselected part of the compounds tested. Two or more numbers in one place are separate tests of the same structure; such repeats can differ widely. A dash means the value is not listed here; it may have been measured.

Leishmania in macrophages: 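Cell assay of Leishmania donovani living inside macrophages; the read-out is not stated. Compounds at 30 µM. Direction is inferred from retests: higher values go with stronger inhibition. Size under these conditions: about 69,000 compounds, about 1,000 of them at 50% or above in at least one test.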
LiHisRS: 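Enzyme assay of histidyl-tRNA synthetase; the read-out is not stated. Target: Histidine-tRNA ligase, Leishmania infantum (UniProt A4I591). Tested at 30 µM. The record gives no direction; compounds that gave an IC50 in retests scored well above the rest, so higher reads as stronger inhibition. The assay is labelled LdHisRS but filed under L. infantum. About 69,000 compounds were tested under these conditions; 0.6% (about 410) showed 50% or more at least once.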
Pks13 thioesterase: 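Polyketide synthase Pks13, Mycobacterium tuberculosis (UniProt I6X8D2). Enzyme assay of the thioesterase domain of polyketide synthase 13; the read-out is not stated. Compounds at 30 µM. Higher reads as stronger inhibition (inferred from which compounds were picked for retests). About 67,000 compounds were tested under these conditions; 0.46% (about 300) showed 50% or more at least once.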

O=C(O)C(F)(F)F.O=C(c1ccoc1)N1CCCC2(CCC(=O)N2Cc2ccncc2)C1 (stereo not drawn) gave Leishmania in macrophages: -23.62% and 3.975%.
CN(C)c1ccc2c(c1)CN(C(=O)c1ccnnc1)C2c1cnco1 (stereo not drawn) gave Leishmania in macrophages: 6.145%; LiHisRS: 0%; Pks13 thioesterase: -4.978%.
CC(=O)c1cccc(S(=O)(=O)N2CCC(c3noc(C)n3)CC2)c1 gave Leishmania in macrophages: 11.91%; LiHisRS: 32.39%; Pks13 thioesterase: -40.24%.
Cn1cc(C(C)(O)CNc2ccc(C(F)(F)F)cn2)cn1 (stereo not drawn) gave Leishmania in macrophages: 12.07%; LiHisRS: 15.38%; Pks13 thioesterase: -25.19%.
CCN(C(=O)c1ccc2nnc(C3CCN(C)C3)n2c1)C(C)C.O=C(O)C(F)(F)F (stereo not drawn) gave Leishmania in macrophages: 25.28%.
CCOCC(=O)N1CCC(C2CCN(Cc3ccc(Cl)cc3)C2)CC1 (stereo not drawn) gave Leishmania in macrophages: -20.24%; LiHisRS: 19.18%; Pks13 thioesterase: -25.81%.
Cc1nc2n(n1)CC(NCc1ccccc1OCC(=O)N(C)C)CC2 (stereo not drawn) gave Leishmania in macrophages: 10.02%; LiHisRS: 9.524%; Pks13 thioesterase: -31.28%.
CCOCC(O)CN1CCN(C(=O)Cc2ccc(C)nc2)CC1 (stereo not drawn) gave Leishmania in macrophages: 27.26%; LiHisRS: 23.2%; Pks13 thioesterase: 0.6852%.
CCCN(Cc1ccccc1O)C(=O)Nc1cnn(CCOC)c1 gave Leishmania in macrophages: 34.29%; LiHisRS: 7.143%; Pks13 thioesterase: -9.201%.
N#Cc1ccc(N2CCCC3(CCN(c4cccnc4)CC3)C2)cc1.O=C(O)C(F)(F)F gave Leishmania in macrophages: 35.14%.

For reference, 2 entries once more:

SMILES,Leishmania in macrophages,LiHisRS,Pks13 thioesterase
CCCN(Cc1ccccc1O)C(=O)Nc1cnn(CCOC)c1,34.29,7.143,-9.201
CCN(C(=O)c1ccc2nnc(C3CCN(C)C3)n2c1)C(C)C.O=C(O)C(F)(F)F (stereo not drawn),25.28,-,-

Data taken from ChEMBL document CHEMBL3988442, “University of Dundee, Small-Polar-MMV Screening Library” (2021).